The values below come from paper PMC10897170.

Chains of the proteins cited; added tags and fusions are not shown.
UniProt Q61656: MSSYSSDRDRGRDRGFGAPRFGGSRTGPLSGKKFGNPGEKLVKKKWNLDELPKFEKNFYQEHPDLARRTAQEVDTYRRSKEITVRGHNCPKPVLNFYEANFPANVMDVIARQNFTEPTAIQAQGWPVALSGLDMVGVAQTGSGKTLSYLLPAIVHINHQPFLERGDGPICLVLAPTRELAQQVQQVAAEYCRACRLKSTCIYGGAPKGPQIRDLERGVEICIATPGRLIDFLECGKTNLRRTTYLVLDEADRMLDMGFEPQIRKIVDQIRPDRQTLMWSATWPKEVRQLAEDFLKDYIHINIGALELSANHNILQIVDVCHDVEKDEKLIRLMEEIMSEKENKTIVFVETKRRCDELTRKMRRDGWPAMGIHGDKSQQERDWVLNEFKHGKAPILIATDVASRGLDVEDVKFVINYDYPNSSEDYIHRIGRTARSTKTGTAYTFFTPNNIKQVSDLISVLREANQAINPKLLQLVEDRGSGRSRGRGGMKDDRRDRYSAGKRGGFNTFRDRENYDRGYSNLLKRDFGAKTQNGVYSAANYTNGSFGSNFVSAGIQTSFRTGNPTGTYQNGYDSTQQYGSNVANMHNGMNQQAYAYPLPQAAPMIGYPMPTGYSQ
UniProt Q8C3P7: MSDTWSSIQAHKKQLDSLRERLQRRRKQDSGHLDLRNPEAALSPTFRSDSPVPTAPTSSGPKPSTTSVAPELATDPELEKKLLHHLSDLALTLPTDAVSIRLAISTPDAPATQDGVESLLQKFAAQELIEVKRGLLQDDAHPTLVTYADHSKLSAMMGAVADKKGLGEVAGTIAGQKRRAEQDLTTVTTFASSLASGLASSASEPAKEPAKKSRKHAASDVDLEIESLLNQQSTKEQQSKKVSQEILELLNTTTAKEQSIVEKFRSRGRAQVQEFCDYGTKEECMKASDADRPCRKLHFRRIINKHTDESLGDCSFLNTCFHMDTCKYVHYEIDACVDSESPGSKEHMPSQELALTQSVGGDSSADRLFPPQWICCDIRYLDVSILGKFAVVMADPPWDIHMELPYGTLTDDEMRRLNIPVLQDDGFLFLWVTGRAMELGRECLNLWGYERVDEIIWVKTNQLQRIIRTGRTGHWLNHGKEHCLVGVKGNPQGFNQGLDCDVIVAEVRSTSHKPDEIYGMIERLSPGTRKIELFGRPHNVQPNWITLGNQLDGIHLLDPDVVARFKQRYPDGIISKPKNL
UniProt Q9DBY1: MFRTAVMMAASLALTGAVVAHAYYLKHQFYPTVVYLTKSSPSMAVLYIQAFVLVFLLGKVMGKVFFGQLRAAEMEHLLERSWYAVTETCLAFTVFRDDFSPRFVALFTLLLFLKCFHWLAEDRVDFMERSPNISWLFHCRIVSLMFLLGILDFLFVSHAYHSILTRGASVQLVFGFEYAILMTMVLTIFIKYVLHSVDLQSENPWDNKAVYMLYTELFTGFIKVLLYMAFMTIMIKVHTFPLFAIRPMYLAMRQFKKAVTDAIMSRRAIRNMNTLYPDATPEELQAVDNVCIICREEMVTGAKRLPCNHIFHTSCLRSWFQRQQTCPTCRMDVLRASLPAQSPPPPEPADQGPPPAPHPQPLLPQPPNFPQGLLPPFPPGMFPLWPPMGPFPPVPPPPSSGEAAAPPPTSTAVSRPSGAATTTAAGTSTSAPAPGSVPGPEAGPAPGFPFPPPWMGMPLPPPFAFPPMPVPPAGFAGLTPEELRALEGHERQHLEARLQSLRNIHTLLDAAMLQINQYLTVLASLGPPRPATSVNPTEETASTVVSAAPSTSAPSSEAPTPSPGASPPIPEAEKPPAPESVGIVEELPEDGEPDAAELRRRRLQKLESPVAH

Assay [1] deals with DDX5 (endogenous, mouse cells) (mouse (endogenous in MEFs and mouse macrophages)) (UniProt Q61656). The assay is described as follows: co-IP; endogenous proteins in mouse macrophage (Mø) lysates; precipitated with an antibody on protein G/A magnetic beads; western blot; cells untreated or treated with LPS, FSL-1 or Pam3CSK4. A general note: In western blotting, separated proteins are transferred to a membrane and probed.

For assay [2] the target is unchanged. The assay is described as follows: co-IP; endogenous proteins in MEF lysates; precipitated with anti-DDX5, anti-METTL3 or anti-METTL14 antibody on protein G/A magnetic beads; western blot; cells untreated or treated with LPS, FSL-1 or Pam3CSK4, with overexpression or siRNA knock-down of the third protein (DDX5, METTL3, METTL14), or with MyD88 or TRIF siRNA.
Another assay has as its target Flag-DDX5 (mouse) (UniProt Q61656). Put plainly: co-IP; 293T cells co-transfected with Flag-DDX5, HA-METTL14 and/or Myc-METTL3 (third plasmid at 2.5, 5.0 and 10.0 µg or control vector); lysate precipitated with an antibody on protein G/A magnetic beads; western blot.
The next assay has as its target T1, HA-METTL14 (mouse) (UniProt Q3UIK4).
T1 sequence: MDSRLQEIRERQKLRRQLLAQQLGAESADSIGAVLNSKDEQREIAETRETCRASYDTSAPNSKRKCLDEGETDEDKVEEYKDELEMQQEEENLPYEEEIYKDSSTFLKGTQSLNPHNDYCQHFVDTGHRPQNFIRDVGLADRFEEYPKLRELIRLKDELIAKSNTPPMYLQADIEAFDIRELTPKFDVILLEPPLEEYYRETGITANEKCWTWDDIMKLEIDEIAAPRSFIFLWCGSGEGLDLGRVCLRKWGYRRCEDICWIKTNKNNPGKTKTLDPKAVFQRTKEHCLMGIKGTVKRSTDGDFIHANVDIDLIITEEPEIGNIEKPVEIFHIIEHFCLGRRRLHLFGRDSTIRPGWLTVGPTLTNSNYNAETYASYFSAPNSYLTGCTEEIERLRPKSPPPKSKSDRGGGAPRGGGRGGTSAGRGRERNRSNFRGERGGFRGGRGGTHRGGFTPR
The description is as above.

Assay [3] has as its target METTL3 (endogenous, MEFs) (mouse (endogenous in MEFs)) (UniProt Q8C3P7). Put plainly: co-IP; endogenous proteins in MEF lysates; precipitated with anti-DDX5, anti-METTL3 or anti-METTL14 antibody on protein G/A magnetic beads; western blot; cells untreated or treated with LPS, FSL-1 or Pam3CSK4, with overexpression or siRNA knock-down of the third protein (DDX5, METTL3, METTL14), or with MyD88 or TRIF siRNA.

Results are given in words; binding and its absence hold for the method and conditions named. In cells and extracts the contact can be indirect. Some entries that bind do so weakly or less than the wild type. For part of these data: Sequences can lack the tags named with a protein.

For the molecule “Hrd1 (endogenous, mouse cells) (from UniProt Q9DBY1 1-612)”, the binding result in assay [1] and in assay [2] was “binds” in each case.
For “METTL3 (endogenous, MEFs) (from UniProt Q8C3P7 1-580)”, the binding result in assay [2] is listed as “binds”.
As to Myc-METTL3 (from UniProt Q8C3P7 1-580), the binding entry in the assay with Flag-DDX5 (mouse) and in the assay with HA-METTL14 (mouse) was “binds” each time.

B1: METTL14 (endogenous, mouse cells) (protein, UniProt Q3UIK4 1-456)
chain: MDSRLQEIRERQKLRRQLLAQQLGAESADSIGAVLNSKDEQREIAETRETCRASYDTSAPNSKRKCLDEGETDEDKVEEYKDELEMQQEEENLPYEEEIYKDSSTFLKGTQSLNPHNDYCQHFVDTGHRPQNFIRDVGLADRFEEYPKLRELIRLKDELIAKSNTPPMYLQADIEAFDIRELTPKFDVILLEPPLEEYYRETGITANEKCWTWDDIMKLEIDEIAAPRSFIFLWCGSGEGLDLGRVCLRKWGYRRCEDICWIKTNKNNPGKTKTLDPKAVFQRTKEHCLMGIKGTVKRSTDGDFIHANVDIDLIITEEPEIGNIEKPVEIFHIIEHFCLGRRRLHLFGRDSTIRPGWLTVGPTLTNSNYNAETYASYFSAPNSYLTGCTEEIERLRPKSPPPKSKSDRGGGAPRGGGRGGTSAGRGRERNRSNFRGERGGFRGGRGGTHRGGFTPR
Turning to B1, the binding entry in assay [3] was “binds”.
